Assay results taken from patent US7122624B2, “Parathyroid hormone receptor ligands” (The United States of America as represented by the …, priority 1999, dated 2006).
For some of these results: Not every detail of the peptide structures is certain; ends, links or a residue may be inferred. At least one compound was matched to its structure with a doubt left. Non-standard residues stand in square brackets, D forms with d. Residues, ends and D or L forms follow the SMILES beside them. Nle = CCCC[C@H](N)C(=O)O

The chains behind the UniProt entries cited, without tags or fusion partners. Residues count along the entry.
UniProt P70555, 25-546: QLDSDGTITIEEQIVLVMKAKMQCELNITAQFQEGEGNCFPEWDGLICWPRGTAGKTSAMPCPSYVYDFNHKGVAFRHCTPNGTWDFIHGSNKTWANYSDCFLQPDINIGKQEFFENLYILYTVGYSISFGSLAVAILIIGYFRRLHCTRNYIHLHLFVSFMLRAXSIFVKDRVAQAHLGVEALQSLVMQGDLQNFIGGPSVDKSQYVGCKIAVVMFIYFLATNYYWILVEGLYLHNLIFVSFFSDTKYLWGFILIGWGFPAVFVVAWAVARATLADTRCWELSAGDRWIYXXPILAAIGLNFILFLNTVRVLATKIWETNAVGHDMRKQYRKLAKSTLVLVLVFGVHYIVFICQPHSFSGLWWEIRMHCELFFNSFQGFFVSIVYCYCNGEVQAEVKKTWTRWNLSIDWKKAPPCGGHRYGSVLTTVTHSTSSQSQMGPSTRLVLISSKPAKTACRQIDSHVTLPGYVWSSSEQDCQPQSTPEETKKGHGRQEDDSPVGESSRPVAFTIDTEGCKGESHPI
UniProt P49190, 25-550: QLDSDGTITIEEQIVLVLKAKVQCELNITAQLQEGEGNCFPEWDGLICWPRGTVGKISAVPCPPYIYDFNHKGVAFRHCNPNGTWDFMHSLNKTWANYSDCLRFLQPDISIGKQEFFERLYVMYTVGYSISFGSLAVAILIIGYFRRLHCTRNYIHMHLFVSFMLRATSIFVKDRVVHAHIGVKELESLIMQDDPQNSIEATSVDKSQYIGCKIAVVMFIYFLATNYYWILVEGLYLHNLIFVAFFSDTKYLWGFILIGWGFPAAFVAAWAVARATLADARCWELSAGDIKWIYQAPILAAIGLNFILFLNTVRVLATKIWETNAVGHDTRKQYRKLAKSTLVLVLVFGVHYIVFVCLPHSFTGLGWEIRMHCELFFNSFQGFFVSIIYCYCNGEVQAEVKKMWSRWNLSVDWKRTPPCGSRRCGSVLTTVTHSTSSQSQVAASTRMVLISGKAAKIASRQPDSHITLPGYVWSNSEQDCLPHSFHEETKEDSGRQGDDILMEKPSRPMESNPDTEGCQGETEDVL

Columns and labels:
rat PTH2 receptor = biological target: T1, rat PTH2 receptor (Rattus norvegicus, UniProt P70555); assay: cAMP accumulation in COS-7 cells transiently expressing the rat PTH2 receptor; assay type: cell-based; details: synthetic peptide pharmacology; mean+/−S.E.M., n=3
T1 construct: expressed in transfected cells; host or cells: COS-7 (transient)
Procedure: To express rat PTH2 receptor in cell culture, a rat hypothalamus cDNA library was prepared in the vector CDM7 amp as described. […] A clone was isolated from a single positive pool by colony hybridization using the same ^32P labeled probe.
(§1) Cell culture supplies were obtained from Life Technologies (Frederick, Md.) except for fetal bovine serum which was from Sigma (St. Louis, Mo.).
(§2) The constructs containing the cDNA sequences of the human PTH2 receptor and β-galactosidase have been previously described.
All peptides were purchased from either Bachem (Torrance, Calif.) or Peninsula Laboratories (Belmont, Calif.). The letters ‘b,’ ‘r’ and ‘h’ designate the peptide sequence as bovine, rat and human, respectively. […] [α-^32P]dCTP was purchased from ICN Biomedicals (Costa Mesa, Calif.). Bovine hypothalamic extract was prepared by acid extraction, gel-filtration and reverse-phase HPLC as previously described. […]
(§3) Statistical comparison of two sample means was evaluated using the two-tailed Student's t-test. […] Antagonist inhibitory potency was quantified using the pA2, value, the negative logarithm of the concentration of antagonist that produces a two-fold decrease of agonist EC50. This was calculated using the following equation: pA2=((EC50/EC50′)−1)−log [antagonist]

PTH2 receptor = PTH2 receptor (Homo sapiens, UniProt P49190); assay: cAMP accumulation in COS-7 cells transiently expressing the human PTH2 receptor; assay type: cell-based; parameters: expressed in transfected cells; host or cells: COS-7 (transient)
Source text: as §1, §2
All peptides were purchased from either Bachem (Torrance, Calif.) or Peninsula Laboratories (Belmont, Calif.). The letters ‘b,’ ‘r’ and ‘h’ designate the peptide sequence as bovine, rat and human, respectively. […] [α-^32P]dCTP was purchased from ICN Biomedicals (Costa Mesa, Calif.). Bovine hypothalamic extract was prepared by acid extraction, gel-filtration and reverse-phase HPLC as previously described. […] Antagonist inhibitory potency was examined by measuring the concentration-dependence of rPTH(1–34)-stimulated cAMP accumulation in the presence and absence of antagonist.
as §3

SMILES | EC50 (rat PTH2 receptor) [nM] | EC50 (PTH2 receptor; synthetic peptide pharmacology, mean+/−S.E.M., n=3) [nM] | EC50 (PTH2 receptor; activation of adenylyl cyclase, COS-7, figures in brackets) [nM] | −logEC50 (PTH2 receptor; activation of adenylyl cyclase, COS-7, mean ± s.e.m. of three or four experiments)
CC[C@H](C)[C@H](NC(=O)[C@H](CCC(=O)O)NC(=O)[C@H](CO)NC(=O)[C@@H](NC(=O)[C@H](C)N)C(C)C)C(=O)N[C@@H](CCC(N)=O)C(=O)N[C@@H](CC(C)C)C(=O)N[C@@H](CCSC)C(=O)N[C@@H](Cc1c[nH]cn1)C(=O)N[C@@H](CC(N)=O)C(=O)N[C@@H](CC(C)C)C(=O)NCC(=O)N[C@@H](CCCCN)C(=O)N[C@@H](Cc1c[nH]cn1)C(=O)N[C@@H](CC(C)C)C(=O)N[C@@H](C)C(=O)N[C@@H](CO)C(=O)N[C@H](C(=O)N[C@@H](CCC(=O)O)C(=O)N[C@@H](CCCNC(=N)N)C(=O)N[C@@H](CCSC)C(=O)N[C@@H](CCC(N)=O)C(=O)N[C@@H](Cc1c[nH]c2ccccc12)C(=O)N[C@@H](CC(C)C)C(=O)N[C@@H](CCCNC(=N)N)C(=O)N[C@@H](CCCCN)C(=O)N[C@@H](CCCCN)C(=O)N[C@@H](CC(C)C)C(=O)N[C@@H](CCC(N)=O)C(=O)N[C@@H](CC(=O)O)C(=O)N[C@H](C(=O)N[C@@H](Cc1c[nH]cn1)C(=O)N[C@@H](CC(N)=O)C(=O)N[C@@H](Cc1ccccc1)C(=O)O)C(C)C)C(C)C [PTH] | 49 | 0.15 |  | 
CCCC[C@H](NC(=O)[C@H](CO)NC(=O)[C@H](CO)NC(=O)[C@H](CC(C)C)NC(=O)[C@H](Cc1c[nH]cn1)NC(=O)[C@H](CCCCN)NC(=O)CNC(=O)[C@H](CC(C)C)NC(=O)[C@H](CC(N)=O)NC(=O)[C@H](Cc1c[nH]cn1)NC(=O)[C@H](CCCC)NC(=O)[C@H](Cc1ccccc1)NC(=O)[C@H](CCC(N)=O)NC(=O)[C@@H](NC(=O)[C@H](CCC(=O)O)NC(=O)[C@H](CO)NC(=O)[C@@H](NC(=O)[C@H](C)N)C(C)C)[C@@H](C)CC)C(=O)N[C@@H](CCC(=O)O)C(=O)N[C@@H](CCCNC(=N)N)C(=O)N[C@H](C(=O)N[C@@H](CCC(=O)O)C(=O)N[C@@H](Cc1c[nH]c2ccccc12)C(=O)N[C@@H](CC(C)C)C(=O)N[C@@H](CCCNC(=N)N)C(=O)N[C@@H](CCCCN)C(=O)N[C@@H](CCCCN)C(=O)N[C@@H](CC(C)C)C(=O)N[C@@H](CCC(N)=O)C(=O)N[C@@H](CC(=O)O)C(=O)N[C@H](C(=O)N[C@@H](Cc1c[nH]cn1)C(=O)N[C@@H](CC(N)=O)C(=O)N[C@@H](Cc1ccc(O)cc1)C(N)=O)C(C)C)C(C)C [[Nle^8,18, Tyr^34]bPTH(1-34)] (H-AVSEIQF[Nle]HNLGKHLSS[Nle]ERVEWLRKKLQDVHNY-NH2; N-terminus and C-terminus assumed) |  |  | 3.9 | 8.41 ± 0.16
